These are yes or no findings as the source states them, for the method shown. In cells and extracts the contact can be indirect. Sequences can lack the tags named with a protein.
Target: T1, Flag-MCARE (muscle-enriched Ca2+ regulator; transmembrane protein 233) (mouse) (UniProt D3Z1U7)
T1 sequence: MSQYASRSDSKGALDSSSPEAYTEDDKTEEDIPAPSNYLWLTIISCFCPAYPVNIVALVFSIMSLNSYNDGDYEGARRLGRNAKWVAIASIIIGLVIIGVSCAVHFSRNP
Test: co-IP; HEK293 cells co-transfected; lysates (500 ug protein) in Co-IP buffer (20 mM NaPO4, 150 mM NaCl, 2 mM MgCl2, 0.1% NP-40, 10% glycerol, pH 7.4, 1 mM DTT) incubated with anti-DDDDK-tag mAb-magnetic agarose 60 min at 4 °C; eluted with 3× FLAG peptide; Western blot

binding: no binding
Substance: SERCA2 (mouse)
